Reference: patent US11846640B2, “Identification of anticoagulants in a sample” (DSM IP Assets B.V., priority 2013, dated 2023)

Tested on: normal plasma pool (NPP)
Assay: PiCT Method 4 (inverted PiCT) clotting time on ACL TOP 500
Format: biochemical, human
Procedure: The present invention is in one aspect directed to the use of a clotting assay, in particular the PiCT® testing method on a detection system such as e.g. the ACL TOP® 500 analyzer and to a method to quantitatively and qualitatively detect anticoagulants in a sample, e.g. blood or plasma. […] PiCT® Method 4 or PiCT® inverted includes that first the start reagent is added to the sample, the mixture allowed to proceed according to the manufacturer's instructions followed by addition of the activator, i.e. a reversed order compared to standard PiCT® (see above). PiCT® Method 1 to 4 is described in more detail in the Examples.
The 4 methods (see above) are in more detail described in the Examples. […] With regards to the ACL TOP® 500 analyzer, PiCT® Method 1 to 4 has been established as follows: • PiCT® Method 1: 50 μl of plasma is incubated for 180 sec with 50 μl of reagent 1 and afterwards 50 μl of reagent 2 is added and the time to clot is recorded on the ACL TOP® 500 (i.e. pipetting scheme: P-50/A-50/I-180/50-S).
After calculation of the RR for the different kind of anticoagulants (see Example 1) samples of NPP spiked with incremental amounts of anticoagulants were used in the ACL TOP® 500, wherein 45 μl start reagent was incubated with 140 μl plasma for 60 sec. The time to clot was recorded after addition of 40 μl of activator (i.e. so-called inverted PiCT®).

lepirudin [hirudin]
AC present yes/no (Table 4, PiCT Method 4, clotting time out of RR at the low concentrations of Table 4): yes
Detection of low amounts with PiCT Method 4 (low amounts as shown in Table 4): could be detected
